Measured values from article PMC4237246.
No constants are given. Whether binding was seen depends on the method and setting. Binding can be weak; no strength is given.

Sequences of proteins named here, by UniProt entry; tags and fusion partners are left off. A change or cut given only in a name is not applied to a line headed by its entry.
UniProt P21796: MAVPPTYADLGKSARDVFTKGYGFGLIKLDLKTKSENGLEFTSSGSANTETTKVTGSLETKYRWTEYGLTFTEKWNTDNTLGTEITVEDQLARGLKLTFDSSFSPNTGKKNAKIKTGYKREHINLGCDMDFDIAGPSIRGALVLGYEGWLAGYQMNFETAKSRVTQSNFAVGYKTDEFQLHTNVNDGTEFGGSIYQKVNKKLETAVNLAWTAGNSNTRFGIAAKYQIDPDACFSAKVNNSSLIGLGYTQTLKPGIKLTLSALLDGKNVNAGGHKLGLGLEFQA
UniProt Q07820: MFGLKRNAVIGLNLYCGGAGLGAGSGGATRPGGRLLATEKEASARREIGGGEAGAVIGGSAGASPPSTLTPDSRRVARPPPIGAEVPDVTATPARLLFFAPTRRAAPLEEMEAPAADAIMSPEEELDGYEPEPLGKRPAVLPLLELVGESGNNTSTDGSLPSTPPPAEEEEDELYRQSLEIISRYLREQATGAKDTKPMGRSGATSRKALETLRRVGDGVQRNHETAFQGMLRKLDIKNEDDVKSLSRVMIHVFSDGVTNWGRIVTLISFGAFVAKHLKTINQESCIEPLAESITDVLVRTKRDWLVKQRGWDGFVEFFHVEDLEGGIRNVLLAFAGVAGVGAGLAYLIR

What was measured:
[1] = molecular target: GST-VDAC1 fusion protein (UniProt P21796); experiment: pull-down; GST-VDAC1 on Glutathione Sepharose 4B incubated with 0.2 ug recombinant purified Mcl-1 or Bcl-xL; western blot, band density of pulldown compared with input; both purified
[2] = molecular target: Recombinant His-tagged Mcl-1 (UniProt Q07820); experiment: pull-down; His-tagged Mcl-1 (2 ug) bound to ProBond nickel-chelating resin, incubated with GST-VDAC1, 2 or 3 fusion proteins; anti-GST western blot; BSA lanes as beads-alone control; both purified

| binding [1] | binding [2] | Substance |
| --- | --- | --- |
| binds | – | Recombinant purified Bcl-xL (from UniProt Q07817-1) |
| – | binds | GST-VDAC1 fusion protein (from UniProt P21796 1-283) |
| binds | – | Recombinant His-tagged Mcl-1 (from UniProt Q07820) |
